Library screen at single concentrations

Amino acid sequences for entries named in this document (tags omitted). Residues count along the entry.
UniProt I6X8D2, whole entry: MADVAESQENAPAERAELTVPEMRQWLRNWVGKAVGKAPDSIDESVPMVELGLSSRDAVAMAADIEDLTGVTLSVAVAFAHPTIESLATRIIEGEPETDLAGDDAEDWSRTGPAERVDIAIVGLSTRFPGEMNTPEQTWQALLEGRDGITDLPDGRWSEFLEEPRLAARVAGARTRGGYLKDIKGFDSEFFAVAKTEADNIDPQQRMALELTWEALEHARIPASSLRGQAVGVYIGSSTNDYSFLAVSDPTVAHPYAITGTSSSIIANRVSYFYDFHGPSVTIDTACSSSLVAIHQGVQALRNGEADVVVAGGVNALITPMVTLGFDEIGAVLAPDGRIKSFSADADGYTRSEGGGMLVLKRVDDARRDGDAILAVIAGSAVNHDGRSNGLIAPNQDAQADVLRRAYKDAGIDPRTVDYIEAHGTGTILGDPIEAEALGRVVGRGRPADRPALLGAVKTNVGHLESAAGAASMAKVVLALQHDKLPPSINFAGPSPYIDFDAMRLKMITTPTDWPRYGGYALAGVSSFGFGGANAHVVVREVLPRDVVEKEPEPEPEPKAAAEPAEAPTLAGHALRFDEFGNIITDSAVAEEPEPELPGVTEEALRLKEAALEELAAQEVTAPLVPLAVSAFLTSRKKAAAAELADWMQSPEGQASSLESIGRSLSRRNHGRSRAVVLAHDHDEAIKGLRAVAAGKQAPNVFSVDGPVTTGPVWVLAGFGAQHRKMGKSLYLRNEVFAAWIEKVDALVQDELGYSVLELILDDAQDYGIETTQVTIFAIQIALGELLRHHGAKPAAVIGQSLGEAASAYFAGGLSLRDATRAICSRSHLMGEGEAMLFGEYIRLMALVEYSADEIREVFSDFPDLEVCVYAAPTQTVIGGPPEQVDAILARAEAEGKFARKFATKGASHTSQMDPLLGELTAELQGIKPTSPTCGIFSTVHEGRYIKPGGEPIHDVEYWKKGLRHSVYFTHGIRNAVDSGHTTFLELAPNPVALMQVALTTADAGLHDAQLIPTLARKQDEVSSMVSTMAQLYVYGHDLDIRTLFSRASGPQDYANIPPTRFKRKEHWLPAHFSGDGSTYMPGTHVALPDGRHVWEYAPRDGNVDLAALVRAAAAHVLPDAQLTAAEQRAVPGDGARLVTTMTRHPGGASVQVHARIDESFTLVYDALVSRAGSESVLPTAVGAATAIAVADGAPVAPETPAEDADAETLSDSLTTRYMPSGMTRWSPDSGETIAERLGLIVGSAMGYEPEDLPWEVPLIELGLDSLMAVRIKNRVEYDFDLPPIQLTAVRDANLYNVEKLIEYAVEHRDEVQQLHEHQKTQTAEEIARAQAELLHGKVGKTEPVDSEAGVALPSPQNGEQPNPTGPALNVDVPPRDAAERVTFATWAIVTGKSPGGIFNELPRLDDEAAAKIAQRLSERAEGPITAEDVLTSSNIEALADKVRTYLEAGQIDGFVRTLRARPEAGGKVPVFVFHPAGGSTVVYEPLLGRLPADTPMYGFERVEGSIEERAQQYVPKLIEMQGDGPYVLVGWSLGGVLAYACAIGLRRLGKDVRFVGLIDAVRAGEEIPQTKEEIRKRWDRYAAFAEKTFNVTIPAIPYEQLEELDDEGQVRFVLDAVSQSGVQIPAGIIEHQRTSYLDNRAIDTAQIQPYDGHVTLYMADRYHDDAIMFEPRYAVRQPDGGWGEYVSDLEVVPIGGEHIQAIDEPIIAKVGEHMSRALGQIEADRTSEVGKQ
UniProt A4I591, 1-473: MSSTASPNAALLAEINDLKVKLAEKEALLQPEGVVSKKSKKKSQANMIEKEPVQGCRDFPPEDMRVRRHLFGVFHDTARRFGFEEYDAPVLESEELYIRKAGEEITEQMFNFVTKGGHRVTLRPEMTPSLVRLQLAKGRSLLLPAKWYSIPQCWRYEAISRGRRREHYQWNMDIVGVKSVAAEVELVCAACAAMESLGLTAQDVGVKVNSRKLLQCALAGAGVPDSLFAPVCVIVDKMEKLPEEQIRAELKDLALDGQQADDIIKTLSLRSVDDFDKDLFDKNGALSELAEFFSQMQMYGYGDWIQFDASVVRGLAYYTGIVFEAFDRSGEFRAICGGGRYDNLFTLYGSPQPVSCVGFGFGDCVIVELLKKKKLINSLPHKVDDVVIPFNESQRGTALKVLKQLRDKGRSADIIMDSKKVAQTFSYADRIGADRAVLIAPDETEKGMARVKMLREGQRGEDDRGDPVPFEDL
UniProt P9WPC5, whole entry: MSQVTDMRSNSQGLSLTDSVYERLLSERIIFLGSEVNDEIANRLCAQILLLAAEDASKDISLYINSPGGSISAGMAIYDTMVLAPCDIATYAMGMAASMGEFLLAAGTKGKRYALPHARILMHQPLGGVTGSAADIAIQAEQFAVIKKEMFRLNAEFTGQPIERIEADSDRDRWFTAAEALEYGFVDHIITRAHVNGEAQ
UniProt P9WPC3, whole entry partner: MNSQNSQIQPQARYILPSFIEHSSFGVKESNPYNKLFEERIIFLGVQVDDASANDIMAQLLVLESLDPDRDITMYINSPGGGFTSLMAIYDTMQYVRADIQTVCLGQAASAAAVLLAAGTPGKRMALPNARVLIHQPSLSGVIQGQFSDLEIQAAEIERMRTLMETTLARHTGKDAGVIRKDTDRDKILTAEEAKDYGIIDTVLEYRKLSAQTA
UniProt P9WNZ1, whole entry: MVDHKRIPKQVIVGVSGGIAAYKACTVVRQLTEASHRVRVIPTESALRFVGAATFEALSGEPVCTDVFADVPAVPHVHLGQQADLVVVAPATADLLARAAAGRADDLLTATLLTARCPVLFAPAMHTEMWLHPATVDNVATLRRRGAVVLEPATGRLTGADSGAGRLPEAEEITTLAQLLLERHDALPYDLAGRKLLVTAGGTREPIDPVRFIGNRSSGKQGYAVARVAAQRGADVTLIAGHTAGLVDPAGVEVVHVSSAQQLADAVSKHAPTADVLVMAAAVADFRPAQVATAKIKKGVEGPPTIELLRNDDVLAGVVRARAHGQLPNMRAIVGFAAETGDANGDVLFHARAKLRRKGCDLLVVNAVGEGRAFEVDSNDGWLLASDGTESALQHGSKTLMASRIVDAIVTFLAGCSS

Measurements from “University of Dundee, Small-Polar-MMV Screening Library” (2021), ChEMBL document CHEMBL3988442.

Pks13 thioesterase: 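Enzyme assay of the thioesterase domain of polyketide synthase 13; the read-out is not stated. Target: Polyketide synthase Pks13, Mycobacterium tuberculosis (UniProt I6X8D2). Concentration: 30 µM. The record gives no direction; the compounds picked for IC50 retests had high values, so higher reads as stronger inhibition. About 67,000 compounds were tested under these conditions; 0.46% (about 300) showed 50% or more at least once.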
LiHisRS: 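Enzyme assay of histidyl-tRNA synthetase; the read-out is not stated. Target: Histidine-tRNA ligase, Leishmania infantum (UniProt A4I591). Tested at 30 µM. The record gives no direction; compounds that gave an IC50 in retests scored well above the rest, so higher reads as stronger inhibition. The assay is labelled LdHisRS but filed under L. infantum. Of about 69,000 compounds tested this way, about 410 (0.6%) reached 50% or more in at least one test.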
Leishmania in macrophages: 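Cell assay of Leishmania donovani living inside macrophages; the read-out is not stated. Tested at 30 µM. The record gives no direction; compounds that gave an IC50 in retests scored well above the rest, so higher reads as stronger inhibition. Of about 69,000 compounds tested this way, about 1,000 (1.5%) reached 50% or more in at least one test.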
ClpP1P2: 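Protease assay of ClpP1P2, read by the AMC dye that it sets free. Target: ClpP1P2, Mycobacterium tuberculosis (UniProt P9WPC5 and UniProt P9WPC3). Concentration: 50 µM. Direction is inferred from only a few compounds that gave an IC50; most scored high, so higher reads as stronger inhibition. Most other retested compounds had strongly negative values. Size under these conditions: about 69,000 compounds, about 10 of them at 50% or above in at least one test.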
Toxoplasma: 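Assay of Toxoplasma gondii numbers, read through their beta-galactosidase reporter with a colour substrate. Compounds at 10 µM. The record gives no direction; the compounds picked for IC50 retests had high values, so higher reads as fewer parasites. About 67,000 compounds were tested under these conditions; 0.38% (about 260) showed 50% or more at least once.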
CoaBC: 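Coenzyme A biosynthesis protein CoaBC, Mycobacterium tuberculosis (UniProt P9WNZ1). Enzyme assay of CoaBC with a phosphate dye (Biomol Green) read at 650 nm. Concentration: 30 µM. Direction is inferred from only a few compounds that gave an IC50; most scored high, so higher reads as stronger inhibition. Most strong results did not repeat in a second test. Of about 67,000 compounds tested this way, about 40 (0.06%) reached 50% or more in at least one test.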

Each number is a percent effect as filed.
The controls that fix the scale are not given in the record; negative values are as filed.
Compounds were drawn at random from those tested, without regard to their results.
Two or more numbers in one place are separate tests of the same structure; such repeats can differ widely.
A dash means the value is not listed here; it may have been measured.

| # | Compound | Pks13 thioesterase | LiHisRS | Leishmania in macrophages | ClpP1P2 | Toxoplasma | CoaBC |
|---|---|---|---|---|---|---|---|
| 1 | `Cc1nccn1CCC1CCCCN1C(=O)c1ccc(N(C)C)cc1` (stereo not given) | -30.15 | 5.208 | 13.09 | -2.168 | 6.012 | 1.799 |
| 2 | `COc1ccccc1C1(CNc2snc(Cl)c2C#N)CCOCC1` | 1.392 | 11.4 | -16.98 | -0.2959 | -0.2674 | -2.161 |
| 3 | `COCCC(=O)N1CCC(Nc2ncc(Br)cn2)CC1` | -7.135 | 10.96 | -1.668 | -7.194 | 14.32 | 5.909 |
| 4 | `O=C(CC1CCc2ccccc21)NCCSc1ccccn1` (stereo not given) | -19 | 4.225 | -17.12 | 4.149 | 14.52 | 1.373 |
| 5 | `O=C(O)C(F)(F)F.[H][C@]12CCC[C@@H](CN3CCOCC3)[C@@]1([H])CN(c1cc(OC)ncn1)C2` | - | - | 10.03 | - | -0.7647 | - |
| 6 | `O=C(c1nc(=O)[nH][nH]1)N1CCCN(CC2CCCCC2)CC1` | -33.82 | 14.52 | 6.245 | 1.801 | - | 0.615 |
| 7 | `CCCN1CCN(C(=O)c2cccc(C)n2)[C@H]2CS(=O)(=O)C[C@H]21` | 17.93 | 16.67 | - | 11.68 | - | -1.587 |
| 8 | `CN(C)[C@H]1CN(C(=O)c2ccc3sc4c(c3c2)CCNC4=O)C[C@@H]1O` | -11.77 | 18.4 | -27.04 | -3.529 | -10.46 | 1.568 |
| 9 | `Cc1ccccc1-n1cc(CN(C)C[C@@H]2CCCN3CCCC[C@H]23)cn1` | -16.75 | 20 | - | -7.071 | - | 2.92 |
| 10 | `COc1cc(NC(=O)c2nc3ccccc3n(C)c2=O)cc(OC)c1` | -3.748 | 2.247 | -16.32 | 5.416 | -1.73 | 1.324 |
| 11 | `COCC(=O)N1CCCC2(CCN(Cc3cccc(C)n3)C2=O)C1` (stereo not given) | -4.391 | 7.965 | - | -0.9355 | - | -0.2105 |
| 12 | `[H][C@]12CC[C@@]3(N=C(CC)N(CC)C3=O)[C@@]1([H])CN(C(=O)Nc1ccccc1)C2` | - | - | 30.39 | - | -2.672 | - |
| 13 | `CC(C)Cc1cc(NC(=O)c2ccc3[nH]nnc3c2)n(C)n1` | -77.71 | 21.67 | 0.1855 | 6.615 | 0.7572 | 2.195 |
| 14 | `CCN(CC1CCOC1)S(=O)(=O)Cc1ccccc1Cl` (stereo not given) | -12.08 | 7.853 | 20.22 | -4.669 | 1.685 | 3.043 |
| 15 | `CCCn1c(C)c(CC(=O)N(C)CCO)c2c1CC(C)(C)CC2=O` | -20.86 | 22.35 | 22.83 | -13.32 | 14.31 | 0.2538 |
| 16 | `CC(NC(=O)COc1cccc[n+]1[O-])C1CC1` (stereo not given) | -19.59 | 0 | 17.38 | 5.067 | -3.464 | 2.727 |
| 17 | `O=c1cc(CN(Cc2ccco2)C2CC2)nc2ccc(Br)cn12` | - | 15 | 12.01 | 9.499 | -11.73 | -9.208 |
| 18 | `[H][C@@]12COC[C@]1([H])[C@@H](OCc1cccnc1)CN2C(=O)c1ccc(C)nc1` | - | - | 4.95 | - | 15.74 | - |
| 19 | `C[C@@H](N)C(=O)N1CCC(c2[nH]ncc2-c2ccccc2)CC1` | -15.3 | 10.59 | 2.806 | -2.486 | -1.273 | -16.18 |
| 20 | `Cc1cccnc1CNCC1(O)CCCN(CC(C)(C)C)C1=O` (stereo not given) | -11.69 | 10.59 | 10.62 | -23.48 | 8.779 | 0.7614 |
| 21 | `O=C(NCc1csc(Cc2ccccc2)n1)C1NCCc2[nH]cnc21` (stereo not given) | -10.28 | 2.5 | -5.445 | -16.11 | -15.67 | -0.1242 |
| 22 | `COc1ccc(CN2CCN(c3nccnc3OC)CC2=O)cc1` | -22.42 | 28.77 | -13.52 | -2.204 | 4.159 | -1.142 |
| 23 | `Cn1ccc(C(=O)N2CCN(CCc3ccccc3)CC2)cc1=O` | -6.661 | 21.62 | 35 | 0.2487 | -1.069 | 0.5222 |
| 24 | `COc1ccc(OC)c(C(=O)N2CCCCC2Cn2cccn2)c1` (stereo not given) | -8.226 | -46.43 | -49.28 | -16.74 | -9.857 | 17.73 |
| 25 | `Cc1cc(C)c(C(=O)N[C@H](C(N)=O)c2ccccc2)c(=O)[nH]1` | 0.8318 | -4.225 | 0.7928 | 0.7238 | 12.09 | -2.746 |
| 26 | `Cc1ccc(CN2CCn3c(C(=O)N(C)C)cnc3C2)cc1` | - | 20 | - | 6.126 | - | 0.5 |
| 27 | `c1ccc(-c2cc(CN3CCCCCC3c3ccco3)on2)nc1` (stereo not given) | 3.182 | 23.01 | 15.58 | -20.13 | -9.54 | 6.164 |
| 28 | `CCc1n[nH]c(C2CN(CC(=O)N(C)Cc3ccco3)CCO2)n1` (stereo not given) | -5.815 | -48.48 | -4.603 | 5.693 | -3.406 | -1.815 |
| 29 | `COC(=O)[C@@H]1CN(S(=O)(=O)c2ccccc2)CCN1S(C)(=O)=O` | -33.69 | 22.22 | 7.958 | -10.27 | 14.39 | 0.2257 |
| 30 | `C[C@]1(O)CN(Cc2cscn2)CC[C@@H]1Oc1cccc(F)c1` | -3.674 | 15.94 | 8.818 & 3.571 | -3.143 | 18.07 | 3.398 |
| 31 | `CCN(CC)Cc1nc(Cc2cccc(C(F)(F)F)c2)no1` | -17.23 | 12.59 | 18.26 | -1.595 | -15.88 | -1.728 |
| 32 | `CN(C)[C@@H]1CO[C@H](CNC(=O)C2CCCC2)[C@H]1O` | 4.8 | 17.57 | -7.683 | -11.76 | 0.8512 | 2.87 |
| 33 | `CCS(=O)(=O)CCN1CCCC1c1noc(C2CC2)n1` (stereo not given) | -1.746 | -14.61 | -11.88 | 26.78 | - | -1.799 |
| 34 | `O=C(NCc1cccnc1)c1ccc2nccn2c1` | 17.56 | 1.379 | 7.511 | -81.18 | -2.985 | -11.84 |
| 35 | `Cc1cc(C)n(CC2CCCN2C(=O)c2cncnc2C)n1` (stereo not given) | -12.01 | 11.01 | -8.028 | -0.5499 | 22.67 | 6.6 |
| 36 | `Cc1cnc(N2CCOC(C(=O)NCc3ccccc3)C2)s1` (stereo not given) | - | 9.929 | -29.32 | 15.85 | -25.19 | 13.05 |
| 37 | `CC[C@@H](C)[C@H](NC(=O)CCn1cc(C(C)=O)c2ccccc21)C(=O)O` | -0.9837 | 11.96 | 56.09 | -10.93 | -50.67 | 2.058 |
| 38 | `CNC(=O)N1CCCCC1c1nnc2n1CCCC2` (stereo not given) | -27.81 | 17.65 | 35.64 | -18.24 | 3.098 | 1.777 |
| 39 | `COc1c(C)cnc(CSc2nnc(N)s2)c1C` | -7.835 | 16.96 | 17.42 | 1.413 | 1.395 | -9.091 |
| 40 | `O=C(O)C(F)(F)F.[H][C@@]12CCCO[C@]1([H])[C@H](NS(C)(=O)=O)CN(Cc1cc(C)on1)C2` | - | - | 11.51 | - | 14.14 | - |
| 41 | `COc1c(C2CCCN2C(=O)c2ccc(N(C)C)nn2)c(C)nn1C` (stereo not given) | -2.789 | 2.655 | 21.86 | -8.771 | 3.271 | 2.872 |
| 42 | `CCCc1cc(NCCN2CCNC2=O)n2nccc2n1` | -31.43 | 19.28 | 23.07 | -4.694 | -2.009 | 6.796 |
| 43 | `O=C(COc1cccc2c1CCC2=O)NCCOc1ccccc1` | -31.5 | 11.43 | 2.975 | 5.999 | 1.357 | 2.564 |
| 44 | `O=C(CN1CCCC(Cn2cncn2)C1)NCCC1=CCCCC1` (stereo not given) | -16.48 | 20.34 | -10.83 | -9.343 | -4.885 | 2.1 |
| 45 | `Cc1nccn1-c1cc(CNC(=O)c2ccccn2)ccn1` | -8.864 | 17.31 | 22.91 | 10.43 | 0.2189 | 12.15 |
| 46 | `COC1(CNC(=O)c2ccc3nsnc3c2)CCSC1` (stereo not given) | 11.38 | 2.439 | -3.625 | -11.13 | 17.51 | 6.234 |

For reference, 3 entries once more:

| Compound | Pks13 thioesterase | LiHisRS | Leishmania in macrophages | ClpP1P2 | Toxoplasma | CoaBC |
|---|---|---|---|---|---|---|
| `COC1(CNC(=O)c2ccc3nsnc3c2)CCSC1` (stereo not given) | 11.38 | 2.439 | -3.625 | -11.13 | 17.51 | 6.234 |
| `Cc1cc(C)c(C(=O)N[C@H](C(N)=O)c2ccccc2)c(=O)[nH]1` | 0.8318 | -4.225 | 0.7928 | 0.7238 | 12.09 | -2.746 |
| `Cc1ccccc1-n1cc(CN(C)C[C@@H]2CCCN3CCCC[C@H]23)cn1` | -16.75 | 20 | - | -7.071 | - | 2.92 |